Test: general procedure: Fmoc solid-phase peptide synthesis; 2-chlorotrityl chloride resin (1.0-1.2 mmol/g); HBTU/DIPEA
Details: whole synthesis, LC-MS (Waters Acquity UPLC with Micromass detector), scale of the general procedure 0.5 mmol (500 mg resin)

Substance | final LC-MS purity [%]
CLsu-GGff | 97.62
CLsu-GGGG | 99.29
CLsu-GGFF | 98.76
CLsu-GGGGG | 99.70

Reference: US12622975B2 (priority 2019, dated 2026)
